Experimental findings from publication doi:10.1101/2025.05.29.656919 (bioRxiv, 2025) are described below.

Results are given in words; binding and its absence hold for the method and conditions named. Some entries that bind do so weakly or less than the wild type. Sequences can lack the tags named with a protein.

Test [1] deals with T1, GST-fused VDAC1 N-terminal overhang (Arabidopsis) (UniProt Q9SRH5).
T1 sequence: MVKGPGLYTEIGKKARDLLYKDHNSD
Briefly: pull-down.

The target of test [2] is T2, GST-fused VDAC2 N-terminal overhang (Arabidopsis) (UniProt Q9FJX3).
T2 sequence: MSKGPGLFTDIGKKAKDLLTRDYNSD
Briefly: pull-down.

Test [3] deals with T3, GST-fused VDAC3 N-terminal overhang (Arabidopsis) (UniProt Q9SMX3).
T3 sequence: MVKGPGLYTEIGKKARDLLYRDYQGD
The experiment in a line: pull-down.

Test [4] addresses T4, Glutathione S-transferase-fused VDAC3 (Arabidopsis, UniProt Q9SMX3 1-274).
T4 sequence (looked up): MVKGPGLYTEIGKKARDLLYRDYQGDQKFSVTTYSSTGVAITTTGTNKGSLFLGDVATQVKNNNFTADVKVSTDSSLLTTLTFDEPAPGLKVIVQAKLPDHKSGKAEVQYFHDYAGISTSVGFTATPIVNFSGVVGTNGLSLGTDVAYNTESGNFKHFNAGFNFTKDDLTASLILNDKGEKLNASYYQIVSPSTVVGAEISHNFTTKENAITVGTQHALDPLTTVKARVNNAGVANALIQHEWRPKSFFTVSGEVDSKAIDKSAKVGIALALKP
Briefly: pull-down.

In test [5] the target is T5, Glutathione S-transferase-fused VDAC2 (Arabidopsis, UniProt Q9FJX3 1-276).
T5 sequence (looked up): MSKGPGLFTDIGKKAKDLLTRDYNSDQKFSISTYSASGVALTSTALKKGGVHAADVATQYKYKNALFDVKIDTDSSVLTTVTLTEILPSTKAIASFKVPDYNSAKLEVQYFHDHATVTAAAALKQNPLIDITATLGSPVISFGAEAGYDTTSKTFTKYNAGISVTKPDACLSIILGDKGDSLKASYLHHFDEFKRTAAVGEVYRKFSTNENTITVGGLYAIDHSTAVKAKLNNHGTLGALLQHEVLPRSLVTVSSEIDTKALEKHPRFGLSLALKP
The experiment in a line: pull-down.

Test [6] concerns the target T6, Glutathione S-transferase-fused VDAC1 (Arabidopsis, UniProt Q9SRH5 1-276).
T6 sequence (looked up): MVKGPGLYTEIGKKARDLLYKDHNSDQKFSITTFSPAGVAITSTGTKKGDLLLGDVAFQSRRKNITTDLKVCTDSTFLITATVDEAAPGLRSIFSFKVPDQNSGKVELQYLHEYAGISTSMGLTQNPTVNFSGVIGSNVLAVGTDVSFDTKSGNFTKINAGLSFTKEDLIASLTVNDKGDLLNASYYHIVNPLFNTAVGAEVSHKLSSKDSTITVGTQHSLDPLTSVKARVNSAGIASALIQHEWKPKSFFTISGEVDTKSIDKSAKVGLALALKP
The experiment in a line: pull-down.

In test [7] the target is T7, ATG8f fused with the GAL4 DNA binding domain (pGBKT7) (Arabidopsis) (UniProt Q8VYK7).
T7 sequence: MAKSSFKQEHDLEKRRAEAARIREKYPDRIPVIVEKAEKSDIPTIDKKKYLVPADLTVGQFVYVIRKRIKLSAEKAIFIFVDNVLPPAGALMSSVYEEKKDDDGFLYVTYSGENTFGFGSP
Briefly: two-hybrid.

The target of test [8] is T8, ATG8d fused with the GAL4 DNA binding domain (pGBKT7) (Arabidopsis) (UniProt Q9SL04).
T8 sequence: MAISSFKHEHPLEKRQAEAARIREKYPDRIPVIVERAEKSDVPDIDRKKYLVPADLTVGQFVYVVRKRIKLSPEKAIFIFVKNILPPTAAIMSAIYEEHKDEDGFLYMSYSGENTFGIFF
Briefly: two-hybrid.

Test [9] addresses T9, ATG8i fused with the GAL4 DNA binding domain (pGBKT7) (Arabidopsis) (UniProt Q9LRP7).
T9 sequence: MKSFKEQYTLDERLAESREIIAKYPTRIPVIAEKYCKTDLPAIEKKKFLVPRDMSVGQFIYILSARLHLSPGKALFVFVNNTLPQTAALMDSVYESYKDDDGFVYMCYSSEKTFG
The experiment in a line: two-hybrid.

In test [10] the target is T10, ATG8a fused with the GAL4 DNA binding domain (pGBKT7) (Arabidopsis) (UniProt Q8LEM4).
T10 sequence: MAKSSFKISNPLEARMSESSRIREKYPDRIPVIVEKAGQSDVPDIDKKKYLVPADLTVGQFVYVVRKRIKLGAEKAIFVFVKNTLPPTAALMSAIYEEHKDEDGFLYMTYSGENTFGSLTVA
Briefly: two-hybrid.

Test [11] has as its target T11, ATG8e fused with the GAL4 DNA binding domain (pGBKT7) (Arabidopsis) (UniProt Q8S926).
T11 sequence: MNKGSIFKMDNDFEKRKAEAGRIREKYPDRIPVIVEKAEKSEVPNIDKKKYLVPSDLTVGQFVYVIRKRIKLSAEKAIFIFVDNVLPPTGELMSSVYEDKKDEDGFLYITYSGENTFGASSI
Briefly: two-hybrid.

Test [12] addresses T12, ATG8h fused with the GAL4 DNA binding domain (pGBKT7) (Arabidopsis) (UniProt Q8S925).
T12 sequence: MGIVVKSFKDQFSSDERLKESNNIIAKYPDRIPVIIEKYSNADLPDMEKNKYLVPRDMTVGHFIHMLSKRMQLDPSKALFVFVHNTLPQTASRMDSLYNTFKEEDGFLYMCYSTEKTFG
The experiment in a line: two-hybrid.

The target in test [13] is T13, ATG8c fused with the GAL4 DNA binding domain (pGBKT7) (Arabidopsis) (UniProt Q8S927).
T13 sequence: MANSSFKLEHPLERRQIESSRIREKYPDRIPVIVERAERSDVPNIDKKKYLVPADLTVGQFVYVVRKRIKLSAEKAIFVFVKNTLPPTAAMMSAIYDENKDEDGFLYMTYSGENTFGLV
The experiment in a line: two-hybrid.

Test [14] deals with T14, ATG8g fused with the GAL4 DNA binding domain (pGBKT7) (Arabidopsis) (UniProt Q9LZZ9).
T14 sequence: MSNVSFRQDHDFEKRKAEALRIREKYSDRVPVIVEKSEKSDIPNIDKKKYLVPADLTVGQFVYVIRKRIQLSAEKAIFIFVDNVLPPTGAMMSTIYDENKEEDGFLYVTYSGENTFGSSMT
Briefly: two-hybrid.

Test [15] has as its target T15, ATG8b fused with the GAL4 DNA binding domain (pGBKT7) (Arabidopsis) (UniProt Q9XEB5).
T15 sequence: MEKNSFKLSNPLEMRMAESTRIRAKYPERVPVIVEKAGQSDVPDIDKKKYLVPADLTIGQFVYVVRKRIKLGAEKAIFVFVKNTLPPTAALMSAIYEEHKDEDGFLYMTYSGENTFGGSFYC
Briefly: two-hybrid.

B1: ATG8e with LDS mutation (Y51A, L52A) (protein, UniProt Q8S926 1-118)
chain: MNKGSIFKMDNDFEKRKAEAGRIREKYPDRIPVIVEKAEKSEVPNIDKKKAAVPSDLTVGQFVYVIRKRIKLSAEKAIFIFVDNVLPPTGELMSSVYEDKKDEDGFLYITYSGENTFG
For the molecule B1, the binding result in [1], in test [2], in [3], in [4], in test [5] and in test [6] was “no binding” each time.

B2: VDAC3 fused with the activating domain (pGADT7) (protein, UniProt Q9SMX3 1-274)
chain: T4 sequence (looked up)
As for B2, the binding entry in test [7], in test [8], in [9], in [10], in test [11] and in test [12] was “binds” in each case. The binding result in test [13], in [14] and in test [15] was “binds” in each case.

B3: VDAC1 fused with the activating domain (pGADT7) (protein, UniProt Q9SRH5 1-276)
chain: T6 sequence (looked up)
B3: the binding result in test [7], in test [8], in test [9], in test [10], in test [11] and in test [12] was “binds” in each case. The binding result in test [13], in test [14] and in [15] was “binds” in each case.

B4: VDAC2 fused with the activating domain (pGADT7) (protein, UniProt Q9FJX3 1-276)
chain: T5 sequence (looked up)
Turning to B4, the binding entry in [7], in test [8], in test [9], in test [10], in test [11] and in test [12] was “binds” in each case. For the same molecule, the binding result in test [13], in [14] and in test [15] was “binds” throughout.
